The values that follow come from article PMC11586402.

The assay addresses T1, GST-Zfp260 (mouse) (UniProt Q62513).
T1 sequence: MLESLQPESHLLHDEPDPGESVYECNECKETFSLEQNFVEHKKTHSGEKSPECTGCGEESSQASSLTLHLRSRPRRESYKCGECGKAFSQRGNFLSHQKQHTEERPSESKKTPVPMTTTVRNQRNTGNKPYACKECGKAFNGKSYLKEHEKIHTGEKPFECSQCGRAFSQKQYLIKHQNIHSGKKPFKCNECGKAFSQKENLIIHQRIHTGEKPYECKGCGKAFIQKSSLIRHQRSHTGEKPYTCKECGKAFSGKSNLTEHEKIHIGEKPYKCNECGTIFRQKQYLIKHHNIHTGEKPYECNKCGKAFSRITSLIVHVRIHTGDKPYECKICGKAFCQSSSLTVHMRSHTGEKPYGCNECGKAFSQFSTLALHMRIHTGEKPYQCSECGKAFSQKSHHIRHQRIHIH
The experiment in a line: affinity purification with mass spectrometry; GST-Zfp260 captured on glutathione magnetic agarose beads, incubated with whole cell lysates of PSCs at 4 °C overnight; eluate silver stained and analysed by mass spectrometry; GST alone as control; only the target purified.

Results are given in words; binding and its absence hold for the method and conditions named. Binding seen in cells or lysates may run through a third protein. A yes stands for co-enrichment or nearness to the bait. Other partners may have been found. Sequences can lack the tags named with a protein.

As to “Prkca (from UniProt P20444 1-672) (enzyme)”, the binding result is given as “binds”.
